Assay: Airway (oral cavity) breath VOC analysis by ATD/GC/MS in patients with oral malodor
Parameters: species or system human
Conditions: oral cavity breath samples of patients with strong offensive oral malodor, all patients combined; thirty most abundant VOCs

Row | Compound | Mean relative abundance (mean value of ratio to abundance of an internal standard)
1 | C=CC(=C)C [1,3-Butadiene, 2-methyl-] | 3.87
2 | C=C(C)C [1-Propene, 2-methyl-] | 4
3 | CCC(C)=O [2-Butanone] | 1.11
4 | CC=O [Acetaldehyde] | 0.55
5 | Cc1ccccc1 [Benzene, methyl-] | 8.25
6 | CC(C)(C)C(C)(C)C [Butane, 2,2,3,3-tetramethyl-] | 4.75
7 | CCC(C)C [Butane, 2-methyl-] | 1.21
8 | CC1CCCCC1 [Cyclohexane, methyl-] | 2.63
9 | C1CCCCC1 [Cyclohexane] | 2
10 | CCC1CCCC1 [Cyclopentane, ethyl-] | 0.54
11 | CC1CCCC1 [Cyclopentane, methyl-] | 2.94
12 | CCC(C)CCCCCC(C)(C)C (centres unmarked) [Decane, 2,2,8-trimethyl-] | 0.75
13 | CCCCCCCCC(C)(C)C [Decane, 2,2-dimethyl-] | 3.42
14 | CCO [Ethanol] | 4.64
15 | CCCCCCC [Heptane] | 0.96
16 | CCCC(C)C(C)(C)C (centres unmarked) [Hexane, 2,2,3-trimethyl-] | 0.53
17 | CCC(C)CC(C)(C)C (centres unmarked) [Hexane, 2,2,4-trimethyl-] | 0.57
18 | CC(C)CCC(C)(C)C [Hexane, 2,2,5-trimethyl-] | 4.09
19 | CCCCC(C)C [Hexane, 2-methyl-] | 2.63
20 | CCCC(C)CC (centres unmarked) [Hexane, 3-methyl-] | 3.18
21 | CCCCCC [Hexane] | 2.84
22 | CCCCC(CCC)CC(C)CC (centres unmarked) [Nonane, 3-methyl-5-propyl-] | 3.59
23 | CCC(C)(C)C(C)C [Pentane, 2,3,3-trimethyl-] | 0.75
24 | CC(C)C(C)C(C)C [Pentane, 2,3,4-trimethyl-] | 0.72
25 | CCC(C)C(C)C (centres unmarked) [Pentane, 2,3-dimethyl-] | 1.5
26 | CCCC(C)C [Pentane, 2-methyl-] | 0.75
27 | CCC(CC)C(C)(C)C [Pentane, 3-ethyl-2,2-dimethyl-] | 0.82
28 | CCC(C)CC [Pentane, 3-methyl-] | 1.01
29 | CCCCCCCCC(C)CC (centres unmarked) [Undecane, 3-methyl-] | 1.38

Reference: patent publication US20080008666A1, “Breath Test for Oral Malodor” (priority 2004, published 2008)
